Laboratory results reported in patent US11142554B2, “Selective Mcl-1 binding peptides” (MASSACHUSETTS INSTITUTE OF TECHNOLOGY, priority 2015, dated 2021).
For part of these data: Part of at least one peptide drawing is inferred or uncertain, most often the ends. At least one compound was matched to its structure with a doubt left. Positions of bridges follow the written chain, without caps; N, C: chain ends. Non-standard residues stand in square brackets, D forms with d. Residues, ends and D or L forms follow the SMILES beside them. S5 = C=CCCC[C@](C)(N)C(=O)O; Nle = CCCC[C@H](N)C(=O)O

Chains of the proteins cited; added tags and fusions are not shown.
UniProt Q07820, whole entry: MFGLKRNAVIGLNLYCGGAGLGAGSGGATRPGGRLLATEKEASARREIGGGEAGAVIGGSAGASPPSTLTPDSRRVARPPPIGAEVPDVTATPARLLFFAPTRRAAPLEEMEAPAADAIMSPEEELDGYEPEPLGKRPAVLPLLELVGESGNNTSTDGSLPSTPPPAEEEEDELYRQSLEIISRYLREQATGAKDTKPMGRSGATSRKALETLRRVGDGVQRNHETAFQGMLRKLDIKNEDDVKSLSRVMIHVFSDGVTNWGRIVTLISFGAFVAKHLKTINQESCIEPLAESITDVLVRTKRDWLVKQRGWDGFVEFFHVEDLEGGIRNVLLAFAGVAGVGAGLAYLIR
UniProt Q07817, whole entry: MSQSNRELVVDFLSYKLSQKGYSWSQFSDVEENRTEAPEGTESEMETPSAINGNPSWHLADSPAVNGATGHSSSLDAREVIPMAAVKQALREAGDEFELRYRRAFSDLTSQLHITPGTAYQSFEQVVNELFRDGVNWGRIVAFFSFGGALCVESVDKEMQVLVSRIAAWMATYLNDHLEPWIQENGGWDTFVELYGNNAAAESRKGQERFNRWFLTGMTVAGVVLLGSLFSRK
UniProt P10415, whole entry: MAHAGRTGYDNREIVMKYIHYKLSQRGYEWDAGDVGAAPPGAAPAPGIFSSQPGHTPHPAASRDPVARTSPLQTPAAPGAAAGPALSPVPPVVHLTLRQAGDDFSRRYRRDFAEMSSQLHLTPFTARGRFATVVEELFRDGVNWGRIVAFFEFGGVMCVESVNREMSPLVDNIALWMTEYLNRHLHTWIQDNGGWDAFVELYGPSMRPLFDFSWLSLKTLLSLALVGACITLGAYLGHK

Assays:
Test in all cases: Receptor binding IC50 of M1 and stapled M1 peptides (Table 2)
Mcl-1 = Mcl-1 (Homo sapiens, UniProt Q07820); conditions: read-out: IC50% (95% confidence interval) Receptor Mcl-1
Description: Peptides 1-10 are SEQ ID NOs: 46, 47, 9, 48, 49, 50, 7, 51, 52, and 8 respectively.

BclxL = BclxL (Homo sapiens, UniProt Q07817); conditions: read-out: IC50% (95% confidence interval) Receptor BclxL
Bcl-2 = Bcl-2 (Homo sapiens, UniProt P10415); conditions: read-out: IC50% (95% confidence interval) Receptor Bcl-2
Bclw = biological target: T1, Bclw (Homo sapiens, UniProt Q92843); conditions: read-out: IC50% (95% confidence interval) Receptor Bclw
T1 sequence (Q92843 1-193): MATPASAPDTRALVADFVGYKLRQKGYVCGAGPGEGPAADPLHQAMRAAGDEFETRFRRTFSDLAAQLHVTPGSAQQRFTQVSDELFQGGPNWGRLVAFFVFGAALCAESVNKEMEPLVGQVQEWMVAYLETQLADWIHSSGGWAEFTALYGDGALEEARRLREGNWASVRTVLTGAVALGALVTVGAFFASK

Bfl1 = biological target: T2, Bfl1 (Homo sapiens, UniProt Q16548); conditions: read-out: IC50% (95% confidence interval) Receptor Bfl1
T2 sequence (Q16548 1-175): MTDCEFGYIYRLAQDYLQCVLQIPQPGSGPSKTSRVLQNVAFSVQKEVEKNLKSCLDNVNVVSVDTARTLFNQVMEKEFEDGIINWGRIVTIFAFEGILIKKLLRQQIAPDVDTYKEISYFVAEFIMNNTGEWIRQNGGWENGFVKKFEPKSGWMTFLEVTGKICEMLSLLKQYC

Row | Compound | IC50 (Mcl-1) | IC50 (BclxL) | IC50 (Bcl-2) | IC50 (Bclw) | IC50 (Bfl1)
1 | CCCC[C@H](NC(=O)[C@H](Cc1c[nH]c2ccccc12)NC(=O)[C@@H](NC(C)=O)[C@@H](C)CC)C(=O)N[C@H](C(=O)N[C@@H](CCC(N)=O)C(=O)NCC(=O)N[C@@H](CC(C)C)C(=O)N[C@@H](CCCNC(=N)N)C(=O)N[C@@H](CCCNC(=N)N)C(=O)N[C@@H](CC(C)C)C(=O)NCC(=O)N[C@@H](CC(=O)O)C(=O)N[C@@H](CCC(=O)O)C(=O)N[C@H](C(=O)N[C@@]1(C)CCCC=CCCC[C@@](C)(C(=O)N[C@@H](CCCNC(=N)N)C(=O)N[C@@H](CCCNC(=N)N)C(N)=O)NC(=O)[C@H](Cc2ccc(O)cc2)NC(=O)[C@H](Cc2ccc(O)cc2)NC(=O)[C@H](C)NC1=O)[C@@H](C)CC)[C@@H](C)O [peptide 10, IWNleTQGLRRLGDEIXAYYXRR] (Ac-IW[Nle]TQGLRRLGDEI[S5]AYY[S5]RR-NH2; staple 15-19; N-terminus assumed) | 0.859 ± 0.022 µM | > 10 µM | > 10 µM | > 10 µM | > 10 µM
2 | CCCC[C@H](NC(=O)[C@H](Cc1c[nH]c2ccccc12)NC(=O)[C@@H](NC(C)=O)[C@@H](C)CC)C(=O)N[C@H](C(=O)N[C@@H](CCC(N)=O)C(=O)NCC(=O)N[C@@H](CC(C)C)C(=O)N[C@@H](CCCNC(=N)N)C(=O)N[C@@]1(C)CCCC=CCCC[C@@](C)(C(=O)N[C@H](C(=O)N[C@@H](CC(N)=O)C(=O)N[C@@H](C)C(=O)N[C@@H](Cc2ccc(O)cc2)C(=O)N[C@@H](Cc2ccc(O)cc2)C(=O)N[C@@H](C)C(=O)N[C@@H](CCCNC(=N)N)C(=O)N[C@@H](CCCNC(=N)N)C(N)=O)[C@@H](C)CC)NC(=O)[C@H](CC(=O)O)NC(=O)CNC(=O)[C@H](CC(C)C)NC1=O)[C@@H](C)O [peptide 7, IWNleTQGLRXLGDXINAYYARR] (Ac-IW[Nle]TQGLR[S5]LGD[S5]INAYYARR-NH2; staple 9-13; N-terminus assumed) | 0.757 ± 0.015 µM | > 10 µM | > 10 µM | > 10 µM | > 10 µM
3 | CCCC[C@H](NC(=O)[C@H](Cc1c[nH]c2ccccc12)NC(=O)[C@@H](N)[C@@H](C)CC)C(=O)N[C@H](C(=O)N[C@@H](CCC(N)=O)C(=O)NCC(=O)N[C@@H](CC(C)C)C(=O)N[C@@H](CCCNC(=N)N)C(=O)N[C@@H](CCCNC(=N)N)C(=O)N[C@@H](CC(C)C)C(=O)NCC(=O)N[C@@H](CC(=O)O)C(=O)N[C@@H](CCC(=O)O)C(=O)N[C@H](C(=O)N[C@@H](CC(N)=O)C(=O)N[C@@H](C)C(=O)N[C@@H](Cc1ccc(O)cc1)C(=O)N[C@@H](Cc1ccc(O)cc1)C(=O)N[C@@H](C)C(=O)N[C@@H](CCCNC(=N)N)C(=O)N[C@@H](CCCNC(=N)N)C(N)=O)[C@@H](C)CC)[C@@H](C)O [M1] (H-IW[Nle]TQGLRRLGDEINAYYARR-NH2; N-terminus and C-terminus assumed) | – | – | > 10 µM | > 10 µM | > 10 µM
4 | CCCC[C@H](NC(=O)[C@H](Cc1c[nH]c2ccccc12)NC(=O)[C@@H](NC(C)=O)[C@@H](C)CC)C(=O)N[C@@]1(C)CCCC=CCCC[C@@](C)(C(=O)N[C@@H](CCCNC(=N)N)C(=O)N[C@@H](CC(C)C)C(=O)NCC(=O)N[C@@H](CC(=O)O)C(=O)N[C@@H](CCC(=O)O)C(=O)N[C@H](C(=O)N[C@@H](CC(N)=O)C(=O)N[C@@H](C)C(=O)N[C@@H](Cc2ccc(O)cc2)C(=O)N[C@@H](Cc2ccc(O)cc2)C(=O)N[C@@H](C)C(=O)N[C@@H](CCCNC(=N)N)C(=O)N[C@@H](CCCNC(=N)N)C(N)=O)[C@@H](C)CC)NC(=O)[C@H](CC(C)C)NC(=O)CNC(=O)[C@H](CCC(N)=O)NC1=O [peptide 3, IWNleXQGLXRLGDEINAYYARR] (Ac-IW[Nle][S5]QGL[S5]RLGDEINAYYARR-NH2; staple 4-8; N-terminus assumed) | 0.09 µM | > 10 µM | > 10 µM | > 10 µM | > 10 µM
